# Experimental data taken from PubChem BioAssay AID1508600 (Functional Genomics Laboratory (NCATS/FGL), 2020).
# In all, about 53,000 sequences went through this assay and about 3,700 (7%) were called active.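 Rule for the calls: active = gene knockdowns whose robust z-score for IL-1 alpha signal is at least 2 or at most -2, so actives lie on both sides; inactive = the rest.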 The list shows a part of the results.
# Test: Components of the Cytosolic LPS Sensing Pathway: Gene Identification via Genome-wide siRNA Screen;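 note: robust z of the log signal after scaling to non-targeting control siRNA wells of the plate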
# Details: RAW264.7 macrophages, IL-1a HTRF, actives lie on both sides, screened at 100 nM (by protocol), cells primed 5 h with Pam3CSK4 first
# Outline: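 Three distinct siRNAs per gene were tested singly at 100 nM in RAW264.7 macrophages. Following Pam3CSK4 priming and 24 hour LipidA transfection, IL-1a secretion was read by HTRF.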
row,Sequence,z-score
1,GGAUCUCCAGAAAGACUUUTT against Gtf2ird2,inactive: -0.112
2,GGAGUUUUGUAUGGUGAAATT against Cd8b1,inactive: -0.0469
3,CCUGUUCAGAUUGUCAACATT against Ptov1,inactive: -0.0331
4,GGUGACACCGCUCAUGAUCTT against Sephs2,inactive: -1.04
5,GCAAUAGCCGGGAGAUAACTT against Itlnb,inactive: 0.378
6,GGUGCUCAAUAAACACAUGTT against Mzf1,inactive: 1.41
7,GGAUCUGAAGUACAAGAAUTT against Tmem216,inactive: 0.475
8,CCACAGUAUCUUAAUGCAATT against Eif3e,inactive: -0.893
9,GGACUGAAAUGUCUUAGACTT against Selenow,inactive: -1.21
10,GGAGACUUCAGCACCUUUGTT against C4a,inactive: 0.455
11,GGAGGUGCUGAAGUUCUACTT against Bckdha,inactive: 1.28
12,GCAAGGCAUUUUUCUAUUUTT against Adcy10,inactive: 0.525
13,GGUGGUGUGUGAUGAGAAUTT against Pabpc6,inactive: 0.649
14,GGAUCCUAAAAUGAAAAAGTT against Cst13,inactive: -0.866
15,GGCGGAAGUCCUUAUCAAATT against Knop1,inactive: -0.709
16,GGAGAAGGUGGCCUUCUUUTT against Fbxo46,inactive: 0.648
17,GCAGACUCUUCCAAGUAAUTT against Lrrc28,inactive: 0.529
18,GCGGACACUACCACCGUUUTT against Slc22a15,inactive: 0.465
19,GGCAUAUCUGAGGUGAAUCTT against Sec23b,inactive: -1.57
20,GGUUAUGAAUCUCAUCAGUTT against St13,inactive: 0.52
21,GGCAUGGAAGGAGGUGCUUTT against Hecw2,inactive: -0.918
22,GGAUACAUUCCAGACAUACTT against Map3k2,inactive: -0.0192

row,Sequence,z-score
1,CCAUUAAUUACGUGUUUGUTT against Dixdc1,inactive: -0.104
2,CGCUCUAGGAAAACAAUGUTT against Klb,inactive: -0.614
3,GGACAAGUCAAUUUGUUGGTT against Zfp36l1,inactive: 0.277
4,GGUCUUAAAUAAUCUGGUCTT against Olfr959,inactive: 0.174
5,CCUAUGUCACUAAGGCACGTT against Nudt13,inactive: 0.482
6,CCUAGUAAUCAGUUUGAAUTT against Ak4,inactive: 1.17
7,GGAACCACACCAUGUGAAATT against Prdm5,inactive: 0.828
8,GGAAAUCUCCUAGAAGAAATT against Mrps18b,inactive: 0.439
9,GGAUUGCCUCACGGUUGCUTT against Ankrd39,inactive: -1.18
10,GCUGCUAAUAUCAAUAACGTT against Prf1,inactive: -0.809
11,GGUAAGGGUCUCUUAUUGCTT against Slc22a15,inactive: -0.482
12,GCAACCAGAGAAAGUUGAGTT against Scx,inactive: 0.681
13,GGUAUAUGAGCAGCUGUCCTT against Uxt,inactive: -0.466
14,GGCCCAACUGGAACAGUAUTT against Fndc9,inactive: 0.694
15,GGUCCAGAUACAGAACUGUTT against Cd3eap,inactive: 1.53
16,GGCUCAUCUGACCAACCAGTT against Pabpc4,inactive: -0.114
17,GCAGUUGGCAUAUUUUAUGTT against Olfr1033,inactive: -0.738
18,GGAGAUCCUGGAGAACUCUTT against Jph2,inactive: -0.233
19,GGUUUUGGACUUGAAUAACTT against Hectd2,inactive: -0.121
20,GGUUGAUUCUUAAAUUGUGTT against Slc6a5,inactive: 0.331
21,GGAAGUGUUAUUAACCAAGTT against Rfx6,inactive: 0.672
22,CCAGGAUUAUAGGUUUUAGTT against Vmn2r66,inactive: 0.9

row,Sequence,z-score
1,GGUCGAGAGGUUGAAAGUATT against Arhgap30,inactive: 0.455
2,CCCACUCAAAUCUAUCAAGTT against Otof,inactive: -0.335
3,GACUGGAGAACAGCAGUUGTT against Amh,inactive: -0.271
4,GCUUGAUUAGGUAGGAAUATT against Stk32a,inactive: -0.388
5,GGAUUGUCAGAAAUCCUGATT against Adat2,inactive: -1.22
6,GGAGCACAAUAGUAAACUATT against Polr1a,active: 2.78
7,GGUCCAAGCCUUUUCUAGATT against Glmp,inactive: 0.305
8,CCAAAAUGAACAUCAACUCTT against Fam167a,inactive: 1.09
9,GGUGUUGAUGCUGAAAACUTT against Ogfod2,inactive: -0.0895
10,GGGUCCUGUUUUUAUAAUATT against Ticam1,inactive: -0.154
11,AGAAGAGUUACCACUAUGUTT against Phf11d,inactive: -0.575
12,CCCACCUUUGGUUCAGAACTT against Ctc1,inactive: -0.0889
13,GCAUUUAGGUCUGAUAAAGTT against Gpr61,inactive: 0.00391
14,CCCGGAGUGGUCAGAAGUATT against Mapkapk2,inactive: -0.376
15,CGUGCAAUCCGAUUUGUUGTT against Acaca,inactive: 0.993
16,GGGCAAAUAUGUUCUCAUUTT against Ndst3,inactive: 0.763
17,GCCUGUAUGGAUGGAUUCCTT against Ahcyl2,inactive: 0.565
18,GGAGUUCAUGAUUCUGCCATT against Eno3,inactive: -0.0433
19,GGAAUUUCAGGAGAUACUGTT against C1qtnf12,inactive: -1.04
20,GGGUCCUAGAGACUUUGAATT against Txndc5,inactive: -0.447
21,GGUCCAAGACAGCAACAUGTT against Ccdc151,inactive: 0.34
22,CGAGUGUUCCUCCAAGUGCTT against Fhl5,inactive: 0.384

row,Sequence,z-score
1,GGAGUACCAACCAGAUUUATT against Cdc26,inactive: 0.75
2,GGCCAGGUAACUCUUACAATT against Trpv1,inactive: 1.12
3,GGGUCCUCUUUCUCCUGUUTT against Ier3,inactive: -0.15
4,GGCAAGCUGAAGAUGAACATT against Ntn1,inactive: -1.14
5,GGAGUUUCAAGAAAAAAGGTT against Map3k21,inactive: 1.08
6,GGUGGACCAUUCUUUUUCUTT against Zfp57,inactive: 0.732
7,GGACAUAGUGCACAAAGAGTT against Yif1a,inactive: -1.61
8,GGAGAAAACCAAACAAUGATT against Gpr156,inactive: 0.248
9,CCGUUCAAACUACUUGCUGTT against Smad7,inactive: 0.86
10,GCUAAAGUCGGAAAAUCAATT against Scoc,inactive: 0.396
11,GGCUGAACAGAUAAAUCAGTT against Stoml2,inactive: 0.405
12,GGCUAAACUCAAACUCACATT against D630029K05Rik,inactive: 0.85
13,CGGUUUAGAUCCCAACACUTT against Pitpnb,inactive: -1.93
14,GGCACAGGACUUUUAAUUUTT against Emx2,inactive: 0.523
15,AAAGUCUUUCACUUUCUAUTT against Zfp457,inactive: 1.72
16,GGAAAUCAAAAUCCUGAAGTT against Ulk1,inactive: -0.523
17,GGGACCCGGAAACAACACATT against Tyrobp,inactive: 0.414
18,GGAAAAGAAGCAAAACUUCTT against Tulp2,inactive: -1.06
19,GCAAAGGAAUCCUUUUCACTT against Clec1a,inactive: 0.879
20,GGUCCUGAGCACAUAGACUTT against Erg28,inactive: 0.839
21,GGAGCUUAGAGGAACGAAUTT against Cyp2j9,inactive: 1.4
22,GGAAAAGCAGACUUGCACCTT against Npm2,inactive: 0.228

# 6 entries picked at random from the list so far:
row,Sequence,z-score
11,GGUAAGGGUCUCUUAUUGCTT against Slc22a15,inactive: -0.482
14,GGCACAGGACUUUUAAUUUTT against Emx2,inactive: 0.523
17,GCCUGUAUGGAUGGAUUCCTT against Ahcyl2,inactive: 0.565
16,GGGCAAAUAUGUUCUCAUUTT against Ndst3,inactive: 0.763
9,CCGUUCAAACUACUUGCUGTT against Smad7,inactive: 0.86
16,GGAGAAGGUGGCCUUCUUUTT against Fbxo46,inactive: 0.648

# Later entries

row,Sequence,z-score
1,GCCUCAUUGAAAGGAUCCATT against Mgat5b,active: -2.32
2,CCUAAAAGCAAGGCUGCCGTT against D8Ertd738e,inactive: -0.0523
3,GGUCAAUUAUGAAGCACCUTT against Pabpc4,inactive: 0.158
4,GCAACAUUGGAUGUACUCATT against Hdac10,active: -2.63
5,GCUAAGUUAAGCUUAAUACTT against Rbl1,active: 3.33
6,GUUCCUCCACAUCCUAGACTT against Smr3a,inactive: 0.336
7,GGAAGAAGACUCAGAAAGUTT against Prkag2,inactive: 1.43
8,GCAGAUUGUGCAGCUAGCATT against Pax4,inactive: 0.452
9,GGCCAUGUGACAUAAAAAATT against Lat,inactive: -1.35
10,GCAAUCUGUUUAGAGAGAGTT against Slc10a5,inactive: -1.16
11,GGAGAUCGCGUUCCUUAAGTT against Des,inactive: 0.758
12,GCAUACGAUGGGAAUUGUATT against Wdr5b,inactive: -1.6
13,GGGAAAAUUCCAGAAUCGCTT against Musk,inactive: 0.315
14,GCAUCAACACCUGUUCUAUTT against Olfr376,inactive: 1.02
15,CGGCGUGUUUAUUUGCUAUTT against Rab27a,inactive: -1.38
16,GCUCAAACACGUGUCGCACTT against Podxl2,inactive: 1.12
17,GGACAUCUUUGACAUUAUATT against Tubg2,inactive: -0.162
18,GGCUUAAAGGGUUUUCUGATT against Rnf13,inactive: -1.51
19,GGUAAAGAUCCAGUGCCGCTT against Tbc1d10c,inactive: -1.02
